Laboratory results published in publication PMC6395706.
Results are given in words; binding and its absence hold for the method and conditions named. Binding seen in cells or lysates may run through a third protein. Some entries that bind do so weakly or less than the wild type.

By UniProt entry, the sequences of proteins in these tests, tags left out.
UniProt Q9Z1S8: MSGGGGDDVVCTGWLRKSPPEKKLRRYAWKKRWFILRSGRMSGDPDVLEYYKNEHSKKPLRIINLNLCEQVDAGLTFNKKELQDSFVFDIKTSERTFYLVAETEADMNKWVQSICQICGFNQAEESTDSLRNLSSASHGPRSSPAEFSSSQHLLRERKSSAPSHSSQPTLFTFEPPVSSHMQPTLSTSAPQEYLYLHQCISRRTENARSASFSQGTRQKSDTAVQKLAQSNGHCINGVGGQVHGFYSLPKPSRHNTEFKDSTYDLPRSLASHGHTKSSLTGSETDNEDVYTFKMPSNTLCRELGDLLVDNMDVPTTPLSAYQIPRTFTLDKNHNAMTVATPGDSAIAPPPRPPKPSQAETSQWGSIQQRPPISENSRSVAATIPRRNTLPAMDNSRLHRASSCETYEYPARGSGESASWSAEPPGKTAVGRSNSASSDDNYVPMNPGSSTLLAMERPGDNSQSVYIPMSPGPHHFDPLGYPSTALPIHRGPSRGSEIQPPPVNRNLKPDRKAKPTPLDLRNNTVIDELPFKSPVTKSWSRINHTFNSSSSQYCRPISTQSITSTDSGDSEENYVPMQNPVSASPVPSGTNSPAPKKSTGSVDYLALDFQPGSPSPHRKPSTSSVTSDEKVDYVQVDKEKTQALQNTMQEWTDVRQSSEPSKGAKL

Biological target: PTEN-L:EGFP (human) (UniProt P60484)
Test: proximity ligation; Duolink PLA with anti-GAB2 and anti-PTEN-L antibodies in fixed, permeabilised primary neurons at DIV 9 treated with PBS for 60 min; proximities below 40 nm

binding: binds
Substance: GRB2-associated-binding protein 2 (from UniProt Q9Z1S8 1-665)
